# Measurements taken from the supplement of paper PMC8728848.
# This is one part of the list.
# How the values were obtained:
# Assay in all cases: glycan array binding signal (z-score within array); higher = stronger binding
# Details in all cases: glycan notation: IUPAC condensed, linker removed
# [1] = biological target: Fuc(a1-2)[Gal(a1-3)]Gal(b1-4)GlcNAc(b1-2)Man
# How it was run: (§1)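 The binding signal is a Z-score computed within each array. Data were drawn from 3228 arrays in the Consortium for Functional Glycomics database, restricted to those with a known protein sequence. Scores were averaged over arrays of the same protein sequence at different concentrations or buffers, and over linkers, and negative values can be taken as non-binding.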
# [2] = biological target: Fuc(a1-2)[Gal(a1-3)]Gal(b1-4)GlcNAc(b1-2)Man(a1-3)[Fuc(a1-2)[Gal(a1-3)]Gal(b1-4)GlcNAc(b1-2)Man(a1-6)]Man(b1-4)GlcNAc(b1-4)GlcNAc
# How it was run: as §1
# [3] = biological target: Fuc(a1-2)[Gal(a1-3)]Gal(b1-4)GlcNAc(b1-2)Man(a1-3)[Fuc(a1-2)[Gal(a1-3)]Gal(b1-4)GlcNAc(b1-2)Man(a1-6)]Man(b1-4)GlcNAc(b1-4)[Fuc(a1-6)]GlcNAc
# How it was run: as §1
# [4] = biological target: Fuc(a1-2)[Gal(a1-3)]Gal(b1-4)GlcNAc(b1-3)GalNAc
# How it was run: as §1
# [5] = biological target: Fuc(a1-2)[Gal(a1-3)]Gal(b1-4)GlcNAc(b1-3)[Fuc(a1-2)[Gal(a1-3)]Gal(b1-4)GlcNAc(b1-6)]GalNAc
# How it was run: as §1
# [6] = biological target: Fuc(a1-2)[Gal(a1-3)]Gal(b1-4)GlcNAc(b1-6)GalNAc
# How it was run: as §1
# [7] = biological target: Fuc(a1-2)[Gal(a1-3)]Gal(b1-4)[Fuc(a1-3)]Glc
# How it was run: as §1
# [8] = biological target: Fuc(a1-2)[Gal(a1-3)]Gal(b1-4)[Fuc(a1-3)]GlcNAc
# How it was run: as §1
# [9] = biological target: Fuc(a1-2)[Gal(a1-3)]Gal(b1-4)[Fuc(a1-3)]GlcNAc(b1-3)GalNAc
# How it was run: as §1
# [10] = biological target: Fuc(a1-2)[Gal(a1-4)]Gal(b1-4)GlcNAc
# How it was run: as §1
# [11] = biological target: Fuc(a1-2)[GalNAc(a1-3)]Gal
# How it was run: as §1
# [12] = biological target: Fuc(a1-2)[GalNAc(a1-3)]Gal(b1-3)GalNAc(a1-3)[Fuc(a1-2)]Gal(b1-4)GlcNAc
# How it was run: as §1
# [13] = biological target: Fuc(a1-2)[GalNAc(a1-3)]Gal(b1-3)GalNAc(b1-3)Gal(a1-4)Gal(b1-4)Glc
# How it was run: as §1
# [14] = biological target: Fuc(a1-2)[GalNAc(a1-3)]Gal(b1-3)GlcNAc
# How it was run: as §1
# [15] = biological target: Fuc(a1-2)[GalNAc(a1-3)]Gal(b1-3)GlcNAc(b1-2)Man(a1-3)[Fuc(a1-2)[GalNAc(a1-3)]Gal(b1-3)GlcNAc(b1-2)Man(a1-6)]Man(b1-4)GlcNAc(b1-4)GlcNAc
# How it was run: as §1
# [16] = biological target: Fuc(a1-2)[GalNAc(a1-3)]Gal(b1-3)GlcNAc(b1-2)Man(a1-3)[Fuc(a1-2)[GalNAc(a1-3)]Gal(b1-3)GlcNAc(b1-2)Man(a1-6)]Man(b1-4)GlcNAc(b1-4)[Fuc(a1-6)]GlcNAc
# How it was run: as §1
# [17] = biological target: Fuc(a1-2)[GalNAc(a1-3)]Gal(b1-3)GlcNAc(b1-3)GalNAc
# How it was run: as §1
# [18] = biological target: Fuc(a1-2)[GalNAc(a1-3)]Gal(b1-3)GlcNAc(b1-6)GalNAc
# How it was run: as §1
# [19] = biological target: Fuc(a1-2)[GalNAc(a1-3)]Gal(b1-4)Glc
# How it was run: as §1
# [20] = biological target: Fuc(a1-2)[GalNAc(a1-3)]Gal(b1-4)GlcNAc
# How it was run: as §1
# [21] = biological target: Fuc(a1-2)[GalNAc(a1-3)]Gal(b1-4)GlcNAc(b1-2)Man
# How it was run: as §1
# [22] = biological target: Fuc(a1-2)[GalNAc(a1-3)]Gal(b1-4)GlcNAc(b1-2)Man(a1-3)[Fuc(a1-2)[GalNAc(a1-3)]Gal(b1-4)GlcNAc(b1-2)Man(a1-6)]Man(b1-4)GlcNAc(b1-4)GlcNAc
# How it was run: as §1
# [23] = biological target: Fuc(a1-2)[GalNAc(a1-3)]Gal(b1-4)GlcNAc(b1-2)Man(a1-3)[Fuc(a1-2)[GalNAc(a1-3)]Gal(b1-4)GlcNAc(b1-2)Man(a1-6)]Man(b1-4)GlcNAc(b1-4)[Fuc(a1-6)]GlcNAc
# How it was run: as §1
# [24] = biological target: Fuc(a1-2)[GalNAc(a1-3)]Gal(b1-4)GlcNAc(b1-3)Gal(b1-4)GlcNAc
# How it was run: as §1
# [25] = biological target: Fuc(a1-2)[GalNAc(a1-3)]Gal(b1-4)GlcNAc(b1-3)Gal(b1-4)GlcNAc(b1-3)Gal(b1-4)GlcNAc
# How it was run: as §1
# [26] = biological target: Fuc(a1-2)[GalNAc(a1-3)]Gal(b1-4)GlcNAc(b1-3)GalNAc
# How it was run: as §1
# [27] = biological target: Fuc(a1-2)[GalNAc(a1-3)]Gal(b1-4)GlcNAc(b1-3)[Fuc(a1-2)[GalNAc(a1-3)]Gal(b1-4)GlcNAc(b1-6)]GalNAc
# How it was run: as §1
# [28] = biological target: Fuc(a1-2)[GalNAc(a1-3)]Gal(b1-4)GlcNAc(b1-6)GalNAc
# How it was run: as §1
# [29] = biological target: Fuc(a1-2)[GalNAc(a1-3)]Gal(b1-4)[Fuc(a1-3)]GlcNAc
# How it was run: as §1
# [30] = biological target: Fuc(a1-2)[GalNAc(a1-3)]Gal(b1-4)[Fuc(a1-3)]GlcNAc(b1-3)GalNAc
# How it was run: as §1
binder,measurement,setting,value
"Endo180d1-D4 (Homo sapiens), Q9UBG0 (protein) MGPGRPAPAPWPRHLLRCVLLLGCLHLGRPGAPGDAALPEPNVFLIFSHGLQGCLEAQGGQVRVTPACNTSLPAQRWKWVSRNRLFNLGTMQCLGTGWPGTNTTASLGMYECDREALNLRWHCRTLGDQLSLLLGARTSNISKPGTLERGDQTRSGQWRIYGSEEDLCALPYHEVYTIQGNSHGKPCTIPFKYDNQWFHGCTSTGREDGHLWCATTQDYGKDERWGFCPIKSNDCETFWDKDQLTDSCYQFNFQSTLSWREAWASCEQQGADLLSITEIHEQTYINGLLTGYSSTLWIGLNDLDTSGGWQWSDNSPLKYLNWESDQPDNPSEENCGVIRTESSGGWQNRDCSIALPYVCKKKPNATAEPTPPDRWANVKVECEPSWQPFQGHCYRLQAEKRSWQESKKACLRGGGDLVSIHSMAELEFITKQIKQEVEELWIGLNDLKLQMNFEWSDGSLVSFTHWHPFEPNNFRDSLEDCVTIWGPEGRWNDSPCNQSLPSICKKAGQLSQGAAEEDHGCRKGWTWHSPSCYWLGEDQVTYSEARRLCTDHGSQLVTITNRFEQAFVSSLIYNWEGEYFWTALQDLNSTGSFFWLSGDEVMYTHWNRDQPGYSRGGCVALATGSAMGLWEVKNCTSFRARYICRQSLGTPVTPELPGPDPTPSLTGSCPQGWASDTKLRYCYKVFSSERLQDKKSWVQAQGACQELGAQLLSLASYEEEHFVANMLNKIFGESEPEIHEQHWFWIGLNRRDPRGGQSWRWSDGVGFSYHNFDRSRHDDDDIRGCAVLDLASLQWVAMQCDTQLDWICKIPRGTDVREPDDSPQGRREWLRFQEAEYKFFEHHSTWAQAQRICTWFQAELTSVHSQAELDFLSHNLQKFSRAQEQHWWIGLHTSESDGRFRWTDGSIINFISWAPGKPRPVGKDKKCVYMTASREDWGDQRCLTALPYICKRSNVTKETQPPDLPTTALGGCPSDWIQFLNKCFQVQGQEPQSRVKWSEAQFSCEQQEAQLVTITNPLEQAFITASLPNVTFDLWIGLHASQRDFQWVEQEPLMYANWAPGEPSGPSPAPSGNKPTSCAVVLHSPSAHFTGRWDDRSCTEETHGFICQKGTDPSLSPSPAALPPAPGTELSYLNGTFRLLQKPLRWHDALLLCESHNASLAYVPDPYTQAFLTQAARGLRTPLWIGLAGEEGSRRYSWVSEEPLNYVGWQDGEPQQPGGCTYVDVDGAWRTTSCDTKLQGAVCGVSSGPPPPRRISYHGSCPQGLADSAWIPFREHCYSFHMELLLGHKEARQRCQRAGGAVLSILDEMENVFVWEHLQSYEGQSRGAWLGMNFNPKGGTLVWQDNTAVNYSNWGPPGLGPSMLSHNSCYWIQSNSGLWRPGACTNITMGVVCKLPRAEQSSFSPSALPENPAALVVVLMAVLLLLALLTAALILYRRRQSIERGAFEGARYSRSSSSPTEATEKNILVSDMEMNEQQE",glycan array binding signal (z-score),[1],-0.69
same,glycan array binding signal (z-score),[2],0.745
same,glycan array binding signal (z-score),[3],-0.162
same,glycan array binding signal (z-score),[4],0.423
same,glycan array binding signal (z-score),[5],0.087
same,glycan array binding signal (z-score),[6],-0.882
same,glycan array binding signal (z-score),[7],-0.887
same,glycan array binding signal (z-score),[8],-0.153
same,glycan array binding signal (z-score),[9],4.86
same,glycan array binding signal (z-score),[10],-0.441
same,glycan array binding signal (z-score),[11],0.152
same,glycan array binding signal (z-score),[12],0.184
same,glycan array binding signal (z-score),[13],-0.342
same,glycan array binding signal (z-score),[14],-0.096
same,glycan array binding signal (z-score),[15],0.287
same,glycan array binding signal (z-score),[16],0
same,glycan array binding signal (z-score),[17],0.609
same,glycan array binding signal (z-score),[18],-0.539
same,glycan array binding signal (z-score),[19],0.001
same,glycan array binding signal (z-score),[20],0.403
same,glycan array binding signal (z-score),[21],0.219
same,glycan array binding signal (z-score),[22],-0.645
same,glycan array binding signal (z-score),[23],-0.407
same,glycan array binding signal (z-score),[24],-0.599
same,glycan array binding signal (z-score),[25],0.363
same,glycan array binding signal (z-score),[26],-0.354
same,glycan array binding signal (z-score),[27],0.059
same,glycan array binding signal (z-score),[28],0.821
same,glycan array binding signal (z-score),[29],-0.079
same,glycan array binding signal (z-score),[30],0.369
